# Source: the supplement of paper PMC8728848
# Some of the results follow.
# Legend:
# Assay in all cases: glycan array binding signal (z-score within array); higher = stronger binding
# Conditions in all cases: glycan notation: IUPAC condensed, linker removed
# Gal3S(b1-4)Glc = molecular target: Gal3S(b1-4)Glc
# Summary of the method: (§1)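 The binding signal is a Z-score computed within each array and averaged over linkers. Arrays of the same protein sequence at different concentrations or buffers were also averaged together. Data originate from 3228 arrays in the Consortium for Functional Glycomics database, kept only where the protein sequence was available.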
# Gal3S(b1-4)Glc6S = molecular target: Gal3S(b1-4)Glc6S
# Summary of the method: as §1
# Gal3S(b1-4)GlcNAc = molecular target: Gal3S(b1-4)GlcNAc
# Summary of the method: as §1
# [1] = molecular target: Gal3S(b1-4)[Fuc(a1-3)]Glc6S
# Summary of the method: as §1
# [2] = molecular target: Gal3S(b1-4)[Fuc(a1-3)]GlcNAc
# Summary of the method: as §1
# [3] = molecular target: Gal3S(b1-4)[Fuc(a1-3)]GlcNAc6S
# Summary of the method: as §1
# Gal3S4S(b1-4)GlcNAc = molecular target: Gal3S4S(b1-4)GlcNAc
# Summary of the method: as §1
# Gal3S6S(b1-4)GlcNAc = molecular target: Gal3S6S(b1-4)GlcNAc
# Summary of the method: as §1
# Gal3S6S(b1-4)GlcNAc6S = molecular target: Gal3S6S(b1-4)GlcNAc6S
# Summary of the method: as §1
# Gal4S(b1-4)GlcNAc = molecular target: Gal4S(b1-4)GlcNAc
# Summary of the method: as §1
# Gal4S6S(b1-4)GlcNAc = molecular target: Gal4S6S(b1-4)GlcNAc
# Summary of the method: as §1
# Gal6P(b1-4)GlcNAc = molecular target: Gal6P(b1-4)GlcNAc
# Summary of the method: as §1
# Gal6S(b1-3)GlcNAc = molecular target: Gal6S(b1-3)GlcNAc
# Summary of the method: as §1
# Gal6S(b1-3)GlcNAc6S = molecular target: Gal6S(b1-3)GlcNAc6S
# Summary of the method: as §1
# Gal6S(b1-4)Glc = molecular target: Gal6S(b1-4)Glc
# Summary of the method: as §1
# Gal6S(b1-4)Glc6S = molecular target: Gal6S(b1-4)Glc6S
# Summary of the method: as §1
# Gal6S(b1-4)GlcNAc = molecular target: Gal6S(b1-4)GlcNAc
# Summary of the method: as §1
# Gal6S(b1-4)GlcNAc6S = molecular target: Gal6S(b1-4)GlcNAc6S
# Summary of the method: as §1
# GalNAc(a1-3)Gal = molecular target: GalNAc(a1-3)Gal
# Summary of the method: as §1
# GalNAc(a1-3)GalNAc = molecular target: GalNAc(a1-3)GalNAc
# Summary of the method: as §1
# [4] = molecular target: GalNAc(a1-3)GalNAc(b1-3)Gal(a1-4)Gal(b1-4)Glc
# Summary of the method: as §1
# [5] = molecular target: GalNAc(a1-3)GalNAc(b1-3)Gal(a1-4)Gal(b1-4)GlcNAc
# Summary of the method: as §1
# GalNAc(b1-3)Gal = molecular target: GalNAc(b1-3)Gal
# Summary of the method: as §1
# [6] = molecular target: GalNAc(b1-3)Gal(a1-4)Gal(b1-4)GlcNAc
# Summary of the method: as §1
# [7] = molecular target: GalNAc(b1-3)Gal(a1-4)Gal(b1-4)GlcNAc(b1-3)Gal(b1-4)Glc
# Summary of the method: as §1
# [8] = molecular target: GalNAc(b1-3)Gal(a1-6)Gal(b1-4)Glc
# Summary of the method: as §1
# GalNAc(b1-3)GalNAc = molecular target: GalNAc(b1-3)GalNAc
# Summary of the method: as §1
# GalNAc(b1-3)GlcNAc = molecular target: GalNAc(b1-3)GlcNAc
# Summary of the method: as §1
# GalNAc(b1-4)Gal(b1-4)Glc = molecular target: GalNAc(b1-4)Gal(b1-4)Glc
# Summary of the method: as §1
# GalNAc(b1-4)GlcNAc = molecular target: GalNAc(b1-4)GlcNAc
# Summary of the method: as §1
# [9] = molecular target: GalNAc(b1-4)GlcNAc(b1-2)Man
# Summary of the method: as §1
# [10] = molecular target: GalNAc(b1-4)GlcNAc(b1-2)Man(a1-3)[GalNAc(b1-4)GlcNAc(b1-2)Man(a1-6)]Man(b1-4)GlcNAc(b1-4)GlcNAc
# Summary of the method: as §1
# [11] = molecular target: GalNAc(b1-4)GlcNAc(b1-3)GalNAc(b1-4)GlcNAc
# Summary of the method: as §1
# GalNAc(b1-4)GlcNAc6S = molecular target: GalNAc(b1-4)GlcNAc6S
# Summary of the method: as §1
# GalNAc(b1-6)GalNAc = molecular target: GalNAc(b1-6)GalNAc
# Summary of the method: as §1
# GalNAc3S(b1-4)GlcNAc = molecular target: GalNAc3S(b1-4)GlcNAc
# Summary of the method: as §1
# GalNAc3S(b1-4)GlcNAc3S = molecular target: GalNAc3S(b1-4)GlcNAc3S
# Summary of the method: as §1
# [12] = molecular target: GalNAc3S(b1-4)[Fuc(a1-3)]GlcNAc
# Summary of the method: as §1
# GalNAc4S6S(b1-4)GlcNAc = molecular target: GalNAc4S6S(b1-4)GlcNAc
# Summary of the method: as §1
# GalNAc6S(b1-4)GlcNAc = molecular target: GalNAc6S(b1-4)GlcNAc
# Summary of the method: as §1
# Glc(a1-4)Glc = molecular target: Glc(a1-4)Glc
# Summary of the method: as §1
# [13] = molecular target: Glc(a1-4)Glc(a1-4)Glc(a1-4)Glc
# Summary of the method: as §1
# Glc(a1-6)Glc(a1-6)Glc = molecular target: Glc(a1-6)Glc(a1-6)Glc
# Summary of the method: as §1
# [14] = molecular target: Glc(a1-6)Glc(a1-6)Glc(a1-6)Glc
# Summary of the method: as §1
# Glc(b1-4)Glc = molecular target: Glc(b1-4)Glc
# Summary of the method: as §1
binder,measurement,setting,value
Lb MiSSP8 (Laccaria bicolor) (protein) MYFHTLFACATLMLITTAHASPTVINSLDSRKADLNGDVEARHAADWRRDSDWRRDSDWRRDSDWRRDSD,glycan array binding signal (z-score),Gal3S(b1-4)Glc,0.63
same,glycan array binding signal (z-score),Gal3S(b1-4)Glc6S,-0.129
same,glycan array binding signal (z-score),Gal3S(b1-4)GlcNAc,0.312
same,glycan array binding signal (z-score),[1],0.678
same,glycan array binding signal (z-score),[2],0.554
same,glycan array binding signal (z-score),[3],0.295
same,glycan array binding signal (z-score),Gal3S4S(b1-4)GlcNAc,-0.771
same,glycan array binding signal (z-score),Gal3S6S(b1-4)GlcNAc,-0.26
same,glycan array binding signal (z-score),Gal3S6S(b1-4)GlcNAc6S,-0.613
same,glycan array binding signal (z-score),Gal4S(b1-4)GlcNAc,-0.633
same,glycan array binding signal (z-score),Gal4S6S(b1-4)GlcNAc,-0.73
same,glycan array binding signal (z-score),Gal6P(b1-4)GlcNAc,-0.695
same,glycan array binding signal (z-score),Gal6S(b1-3)GlcNAc,-0.502
same,glycan array binding signal (z-score),Gal6S(b1-3)GlcNAc6S,-0.033
same,glycan array binding signal (z-score),Gal6S(b1-4)Glc,-0.416
same,glycan array binding signal (z-score),Gal6S(b1-4)Glc6S,-0.571
same,glycan array binding signal (z-score),Gal6S(b1-4)GlcNAc,-0.613
same,glycan array binding signal (z-score),Gal6S(b1-4)GlcNAc6S,-0.571
same,glycan array binding signal (z-score),GalNAc(a1-3)Gal,-0.723
same,glycan array binding signal (z-score),GalNAc(a1-3)GalNAc,-0.385
same,glycan array binding signal (z-score),[4],-0.778
same,glycan array binding signal (z-score),[5],0.899
same,glycan array binding signal (z-score),GalNAc(b1-3)Gal,0.25
same,glycan array binding signal (z-score),[6],1.07
same,glycan array binding signal (z-score),[7],4.15
same,glycan array binding signal (z-score),[8],-0.419
same,glycan array binding signal (z-score),GalNAc(b1-3)GalNAc,-0.122
same,glycan array binding signal (z-score),GalNAc(b1-3)GlcNAc,-0.399
same,glycan array binding signal (z-score),GalNAc(b1-4)Gal(b1-4)Glc,-0.226
same,glycan array binding signal (z-score),GalNAc(b1-4)GlcNAc,1.03
same,glycan array binding signal (z-score),[9],-0.744
same,glycan array binding signal (z-score),[10],1.2
same,glycan array binding signal (z-score),[11],2.18
same,glycan array binding signal (z-score),GalNAc(b1-4)GlcNAc6S,0.837
same,glycan array binding signal (z-score),GalNAc(b1-6)GalNAc,-0.764
same,glycan array binding signal (z-score),GalNAc3S(b1-4)GlcNAc,-0.267
same,glycan array binding signal (z-score),GalNAc3S(b1-4)GlcNAc3S,-0.592
same,glycan array binding signal (z-score),[12],-0.185
same,glycan array binding signal (z-score),GalNAc4S6S(b1-4)GlcNAc,-0.806
same,glycan array binding signal (z-score),GalNAc6S(b1-4)GlcNAc,-0.902
same,glycan array binding signal (z-score),Glc(a1-4)Glc,1.21
same,glycan array binding signal (z-score),[13],1.44
same,glycan array binding signal (z-score),Glc(a1-6)Glc(a1-6)Glc,-0.109
same,glycan array binding signal (z-score),[14],-0.592
same,glycan array binding signal (z-score),Glc(b1-4)Glc,-0.392

# Reprinted from the entries so far for reference:
binder,measurement,setting,value
Lb MiSSP8 (Laccaria bicolor) (protein) MYFHTLFACATLMLITTAHASPTVINSLDSRKADLNGDVEARHAADWRRDSDWRRDSDWRRDSDWRRDSD,glycan array binding signal (z-score),GalNAc(a1-3)Gal,-0.723
same,glycan array binding signal (z-score),GalNAc(a1-3)GalNAc,-0.385
same,glycan array binding signal (z-score),[4],-0.778
